Percent effect of library compounds

The chains behind the UniProt entries cited, without tags or fusion partners. Residues count along the entry.
UniProt A4I591, 1-473: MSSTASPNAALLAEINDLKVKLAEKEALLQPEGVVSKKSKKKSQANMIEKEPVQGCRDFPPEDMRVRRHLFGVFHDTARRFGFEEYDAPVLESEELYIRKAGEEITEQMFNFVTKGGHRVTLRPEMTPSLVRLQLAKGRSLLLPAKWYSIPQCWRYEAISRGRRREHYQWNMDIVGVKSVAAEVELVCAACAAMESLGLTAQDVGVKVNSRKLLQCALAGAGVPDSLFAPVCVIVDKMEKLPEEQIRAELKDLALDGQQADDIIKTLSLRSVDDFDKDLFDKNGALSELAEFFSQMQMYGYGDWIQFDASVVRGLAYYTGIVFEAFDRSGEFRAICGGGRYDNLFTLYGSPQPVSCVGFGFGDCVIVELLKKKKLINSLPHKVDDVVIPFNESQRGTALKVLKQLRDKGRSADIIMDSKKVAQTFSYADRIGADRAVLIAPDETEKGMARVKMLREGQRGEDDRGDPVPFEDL
UniProt P9WNZ1, whole entry: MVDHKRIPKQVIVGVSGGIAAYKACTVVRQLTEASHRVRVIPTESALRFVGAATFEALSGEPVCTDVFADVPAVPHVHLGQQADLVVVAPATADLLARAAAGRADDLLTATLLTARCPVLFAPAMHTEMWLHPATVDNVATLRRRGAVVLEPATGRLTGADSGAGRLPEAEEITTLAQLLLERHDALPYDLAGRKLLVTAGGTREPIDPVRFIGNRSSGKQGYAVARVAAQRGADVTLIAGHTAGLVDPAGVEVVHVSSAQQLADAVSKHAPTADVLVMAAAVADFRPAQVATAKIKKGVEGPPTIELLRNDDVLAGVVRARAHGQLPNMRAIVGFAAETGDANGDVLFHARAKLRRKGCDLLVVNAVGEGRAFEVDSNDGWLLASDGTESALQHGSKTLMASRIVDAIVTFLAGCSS

Source: ChEMBL document CHEMBL3988442, “University of Dundee, Small-Polar-MMV Screening Library” (2021).

A: 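Enzyme assay of histidyl-tRNA synthetase; the read-out is not stated. Target: Histidine-tRNA ligase, Leishmania infantum (UniProt A4I591). Tested at 30 µM. The record gives no direction; compounds that gave an IC50 in retests scored well above the rest, so higher reads as stronger inhibition. The assay is labelled LdHisRS but filed under L. infantum. About 69,000 compounds were tested under these conditions; 0.6% (about 410) showed 50% or more at least once.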
B: 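Cell assay of Leishmania donovani living inside macrophages; the read-out is not stated. Concentration: 30 µM. The record gives no direction; compounds that gave an IC50 in retests scored well above the rest, so higher reads as stronger inhibition. Size under these conditions: about 69,000 compounds, about 1,000 of them at 50% or above in at least one test.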
C: 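Coenzyme A biosynthesis protein CoaBC, Mycobacterium tuberculosis (UniProt P9WNZ1). Enzyme assay of CoaBC with a phosphate dye (Biomol Green) read at 650 nm. Concentration: 30 µM. Higher reads as stronger inhibition, judged from the few compounds that gave an IC50. Most strong results did not repeat in a second test. Size under these conditions: about 67,000 compounds, about 40 of them at 50% or above in at least one test.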

The filed quantity is “Percent Effect” (%). The controls that fix the scale are not given in the record; negative values are as filed. The compounds are a random part of those screened. A dash means the value is not listed here; it may have been measured.

compound | A | B | C
[H][C@]12CN(Cc3nc(C)c[nH]3)CC[C@@]1(O)CCN(C(C)=O)C2 | - | 3.766 | -
COc1ccc(C2Nc3ccccc3NC3=C2C(=O)NC3)cc1OC (centres undefined) | 6.557 | 14.58 | 0.6494
[H][C@@]12CCN(C(=O)c3ccc[nH]3)[C@]1([H])CC(=O)N2CCOC | - | 13.43 | -
O=C(O)C(F)(F)F.O=C(O)C(F)(F)F.O=C(O)c1c(-c2ccncc2)ncc2c1CCN(CC1CCOC1)C2 (centres undefined) | - | -1.066 | -
O=C(NCCC1CCCCO1)c1coc(COc2ccc(F)cc2)n1 (centres undefined) | -3.03 | 4.198 | 2.959
CCN(CC)Cc1cn2c(n1)CN(C(=O)c1cnccn1)CC2 | 9.023 | - | 4.627
COCC(=O)NCc1cc(=O)n2c(n1)CN(Cc1nccs1)CCC2 | 13.64 | 33.93 | 4.198
CCSc1ncc(CN(Cc2cnn(C)c2)CC(C)C)cn1 | 5.833 | -1.068 | 1.118
CCc1nc(C2CCCN2C(=O)c2cc[nH]n2)no1 (centres undefined) | 10.34 | 14.55 | 1.567
COCc1cccc(C(=O)N2CCCCC2c2nccs2)c1 (centres undefined) | 28.57 | 22.3 | -2.491
COc1cc(Cl)c(C)cc1NC(=O)CCNc1ccc(C#N)cn1 | -3.125 | -12.08 | -0.2169
COc1ccc(CN2CCC3(CCCNC3)C2)cc1Cn1cccn1 (centres undefined) | 15.2 | -17.62 | 0.1206
Cc1ccc(SC2CCCC2)c(C(=O)NCc2n[nH]c(=O)[nH]2)c1 | 7.895 | 11.38 | 1.515
[H][C@@]12CN(Cc3nccn3C)C(=O)N1CCN(S(=O)(=O)c1ccccc1)C2 | - | 23.04 | -
CCc1nnc(Nc2cccc(C3CCN(C(=O)CN(C)C)CC3)n2)s1 | 22 | 0.7953 | 4.089
CCCS(=O)(=O)N1CCN(CCOC)c2nc(C)ccc2C1.O=C(O)C(F)(F)F | - | 19.95 | -
O=C(O)C1c2nc[nH]c2CCN1Cc1ccc(-c2ccccc2)s1 (centres undefined) | 28.8 | -8.577 | -5.61
Cn1cccc1C(=O)OCCNC(=O)c1ccccc1 | 8.333 | -17.77 | 13.1
O=c1ccc2c(n1CCN1CCCC1)CCN(c1ncccn1)CC2 | 15.09 | 23.11 | 7.561
CCn1cnnc1C1CCN(C(=O)c2ccccc2OC)CC1 | 10.96 | -8.321 | 2.651
CN(C(=O)c1ccc(-n2ncc(C#N)c2N)cc1)C1CCCC1 | 15.38 | 24.69 | -13.14
O=C(c1cccnc1)N1C[C@@H]2CC[C@H](C1)N(Cc1cccc(Cl)c1F)C2 | 25 | - | -4.478
COC(=O)CNC(=O)c1sc(-c2ccc(Cl)s2)nc1C | 12.84 | -5.308 | 8.842
CO[C@H]1CN(C(=O)c2ccc(-c3ccccc3)[nH]2)CC[C@H]1N | 18.18 | 45.29 | -0.2469
CC(C)n1cnc(-c2nc(C(=O)NC3CC3)c3ccccn23)c1 | 13.86 | 34.03 | 3.342
CN(C)CCn1c2c(ccc1=O)CC(NC(=O)c1cnccn1)CC2 (centres undefined) | 7.547 | - | 3.415
CN1CCOC(CN(C(=O)Cc2ccccc2F)c2nccs2)C1 (centres undefined) | 15.38 | -6.347 | 1.012
CN(Cc1ccsc1)C(=O)Cn1c(CS(C)(=O)=O)nc2ccccc21 | 20.22 | 8.233 | 3.49
CCc1cnc(CNC(=O)NC2CC(C)(C)OC2(C)C)s1 (centres undefined) | 13.7 | -49.76 | 3.099
CCc1nnsc1C(=O)N1CCOC(c2nc(C(C)C)n[nH]2)C1 (centres undefined) | 13.04 | -23.85 | -3.038
N#Cc1nccnc1N1CCC(CSc2ccccc2)C1 (centres undefined) | 2.128 | 1.899 | 0.9926
Cc1nnc([C@@H]2CC[C@@H]3[C@@H](CCN3Cc3ccccn3)O2)o1 | 13.79 | - | -
COc1ccccc1C(C)CNC(=O)c1[nH]ncc1Br (centres undefined) | 0 | -10.06 | 9.208
CCC(C)NC(=O)c1nnn(-c2cccc3c2CCN(C)C3)c1C (centres undefined) | 18.75 | -8.575 | -2.893
c1csc(CN2C[C@H](OCC3CCOCC3)[C@H]3COC[C@H]32)n1 | 0.9009 | - | -1.485
COc1ccc(CN2CC[C@H](c3nc4cccc(C(N)=O)c4[nH]3)C2)cc1 | 24.32 | 21.83 | 6.483

Repeated from the top, 4 entries:

With [H][C@]12CN(Cc3nc(C)c[nH]3)CC[C@@]1(O)CCN(C(C)=O)C2 the screen gave B: 3.766%.
With COc1ccc(C2Nc3ccccc3NC3=C2C(=O)NC3)cc1OC (centres undefined) the screen gave A: 6.557%; B: 14.58%; C: 0.6494%.
With [H][C@@]12CCN(C(=O)c3ccc[nH]3)[C@]1([H])CC(=O)N2CCOC the screen gave B: 13.43%.
With O=C(O)C(F)(F)F.O=C(O)C(F)(F)F.O=C(O)c1c(-c2ccncc2)ncc2c1CCN(CC1CCOC1)C2 (centres undefined) the screen gave B: -1.066%.